Patent US20060239968A1 (University of Texas, published 2006)
No constants are given. Whether binding was seen depends on the method and setting. Some entries that bind do so weakly or less than the wild type.

Target: T1, Recombinant IL-11Rα (IL-11 receptor alpha) (UniProt Q14626)
T1 sequence (looked up): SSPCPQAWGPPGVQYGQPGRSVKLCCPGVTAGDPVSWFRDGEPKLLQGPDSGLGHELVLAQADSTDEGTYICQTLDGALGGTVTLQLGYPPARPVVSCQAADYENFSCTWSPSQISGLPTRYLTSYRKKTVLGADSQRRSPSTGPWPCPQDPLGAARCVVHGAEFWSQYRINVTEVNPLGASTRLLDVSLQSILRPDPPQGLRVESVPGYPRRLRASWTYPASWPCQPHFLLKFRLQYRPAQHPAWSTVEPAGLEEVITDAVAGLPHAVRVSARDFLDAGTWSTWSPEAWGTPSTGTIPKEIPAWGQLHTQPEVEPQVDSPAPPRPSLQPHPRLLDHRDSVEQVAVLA
Assay: in vitro ligand-receptor binding assay, phage on immobilized recombinant receptor

Binder: CGRRAGGSC [… (SEQ ID NO:37)-displaying phage]
- binding: binds
